Data as given in PubChem BioAssay AID504804 (Drosophila RNAi Screening Center, 2011)
The deposit covers about 19,000 reagents; below is an unselected part of those with a known target gene and a result. Over the whole deposit, 47 (0.25%) were called active. 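Signals are raw, not normalised; exact z-scores behind calls not deposited; actives needed confirmation, so some wells reaching 2 SD are inactive.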

Purpose: 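dsRNAs that improve Kc cell survival under doxorubicin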 (primary screen)
Cell system: Drosophila Kc cells
Reagent: long dsRNA against Drosophila genes, 0.5 µg dsRNA per well
Timing: 96 h (48 h knock-down, then 48 h drug)
Treatment: doxorubicin 5 µg/ml for 48 h, added 48 h after dsRNA
Detection: 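Viability measured as cellular ATP by luminescence after 48 h knock-down then 48 h doxorubicin at 5 µg/ml; unnormalised plate counts for each replicate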
Scale: raw ATP luminescence: higher = more viable cells, protection from doxorubicin
Active means: 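Active when both duplicate wells lie at least 2 SD above the plate mean and protection is confirmed by rescreening and independent dsRNAs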

For AGO2 [DRSC09999], the values are raw ATP luminescence, replicate 1 = 47733; raw ATP luminescence, replicate 2 = 41213; inactive.
After knock-down of AGO2 [DRSC10847], the record shows raw ATP luminescence, replicate 1 = 24497; raw ATP luminescence, replicate 2 = 26147; inactive.
For Tdrd3 [DRSC10016] the deposit lists raw ATP luminescence, replicate 1 = 80617; raw ATP luminescence, replicate 2 = 62697; inactive.
CG42561 [DRSC05676] gave raw ATP luminescence, replicate 1 = 1.78e5; raw ATP luminescence, replicate 2 = 1.22e5; inactive.

A few values from above:
Result for CG42561 [DRSC05676] under “Call”: inactive
For “raw ATP luminescence, replicate 1”, AGO2 [DRSC10847] has 24497

Next reagents follow.
Pdha [DRSC18413] scored raw ATP luminescence, replicate 1 = 39730; raw ATP luminescence, replicate 2 = 43620; inactive.
Depletion of Psa [DRSC08152] gave: raw ATP luminescence, replicate 1 = 63547; raw ATP luminescence, replicate 2 = 61773; inactive.
After knock-down of Rab1 [DRSC16808], the screen gave raw ATP luminescence, replicate 1 = 33440; raw ATP luminescence, replicate 2 = 29470; inactive.
After knock-down of CG9386 [DRSC16485], the record shows raw ATP luminescence, replicate 1 = 51447; raw ATP luminescence, replicate 2 = 48860; inactive.
After knock-down of CG14855 [DRSC14979] the results were raw ATP luminescence, replicate 1 = 77780; raw ATP luminescence, replicate 2 = 90180; inactive.
For Ugalt [DRSC18467], the entry reads raw ATP luminescence, replicate 1 = 39420; raw ATP luminescence, replicate 2 = 48000; inactive.
CG5439 [DRSC02861] gave raw ATP luminescence, replicate 1 = 1.14e5; raw ATP luminescence, replicate 2 = 52937; inactive.
For CG15254 [DRSC01870] the deposit lists raw ATP luminescence, replicate 1 = 63493; raw ATP luminescence, replicate 2 = 80783; inactive.
